The source of these data is PubChem BioAssay AID1347423 (Functional Genomics Laboratory (NCATS/FGL), 2020).

The whole screen tested about 52,000 sequences, of which about 210 (0.4%) were called active.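 How the source made its calls: active means gene whose silencing raises cell survival under the drug, median off-target-corrected z-score across its silencing RNAs 2 or more; inactive means the rest.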 This is one part of the list.

The experiment is described as follows: Resistance to Poly (ADP-Ribose) Polymerase inhibitor: Gene Identification via Genome-wide siRNA Screen. The settings on record: mouse BRCA2 R2336H ES cells, olaparib, CellTiter-Glo viability; stronger effect = higher value. The method in brief: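 Genome-wide siRNA screen (3 siRNAs/gene, 20 nM) in mouse ES cells carrying hypomorphic BRCA2 R2336H; olaparib 500 nM added 48 h post-transfection, CellTiter-Glo viability 72 h later. Normalized to plate-median negative control; MAD z-scores, gene median, seed-adjusted.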
(In general: ATP-based viability assays read luminescence as a measure of living cells.)
With “GCUGAUGCUCCAUUGAAUGTT against 4930432K09Rik”, the z-score is inactive: 1.3.
For the sequence GGAAUCACUCAAAGCUUAATT against Dst, the z-score is inactive: 0.663.
For GGAAGAGAAAGACCUGAGATT against Glra1 the value was inactive: -0.8; for GGAAGAAAAAUACCAGAAATT against Ubxd1, inactive: -0.661.
Then “GGACAGAUAGUGAAAGAUATT against C130036G08”, with inactive: -1.81; and GGAUUGGCUCAAAGAUAUATT against Prss16, with inactive: 0.301; and GGAAAAUCCAUCUGGCCGATT against Myoc, with inactive: 0.0506.
Then GCGAUGCUGCGUUCUGUUUTT against H1fx, with inactive: -0.532; and GCUUACCAGAUUGUAUGUATT against Mrgpra1, with inactive: -0.242.
CCUAUUCCAACAAUUGGUUTT against Trim23: the z-score was inactive: 0.205.
For “GGUGUUUCAGGUGGACUAUTT against 2810039F03Rik” the value was inactive: -2.37.
Then GUGAUGAUUGAGAGAAUGATT against Pla2g2e, with inactive: -0.743; and GCUCUCAUACACGGUGGAATT against Ros1, with inactive: -1.41.
For “GCAAUUUGAGCAGUAUGUATT against 5730453I16Rik”, the z-score is inactive: 0.373.
For GGUGGACACUCUUGACCUATT against Zfp235 the value was inactive: 0.772; for GGUCUAGCUCCAAUUGGAUTT against AI842396, inactive: -0.428.
On to GGAGAGAAGUGCUACAUCATT against Lect1, for which the z-score was inactive: 1.54.
On to GGGUCAUUAAUGAUGGGCCTT against Si, for which the z-score is inactive: -0.304.
For GGUGUUCACACUCUUUUCUTT against Laptm4b the value was inactive: -0.158.
Turning to GGCCUCCUUUGAUCAUGCGTT against Zfp219, the z-score was inactive: 0.539.
For GCCAUUGUCACAGUCUGAATT against Bhc80 the value was inactive: -2.24.
Then GGUAGAAUGGUUUUGAAGATT against Rnf130, with inactive: 1.66; and GGACCAAGGAGCAUUGAAATT against Fkbp7, with inactive: -0.581; and GCCCUAUAACAACCUCAAGTT against Cdk10, with inactive: -0.464.
For GCAUGAGACUGUGAACCAGTT against Efnb1 the value was inactive: -0.723.
Consider CCUCAUCCUUAGUUGUUUUTT against Tg737Rpw, for which the z-score is inactive: 0.345.
Then CGAAUUUACUUCAGACUUCTT against Aim1, with inactive: -0.143.
Take GCAUCGAAGAGUUCAGAAUTT against C6.1AL: the z-score was inactive: 0.156.
Then GCCAUGCACUAACUUGAAUTT against Adamts4, with inactive: 2.24; and “GGAUGUGAAGAGCAAUCAGTT against 1700012G19Rik”, with inactive: 1.57; and GGGCUUUAUGCAGACCUACTT against Apoc4, with inactive: 0.481.
With GCUCCUAGUGUUUUUGUGGTT against Arbp, the z-score was inactive: 0.692.
For “GCAUAUGAGAUAGUUAACATT against 2210023G05Rik” the value was inactive: 1.01; for “GGCUAACUUUAGUGAGGUATT against 3110070M22Rik”, inactive: -0.403; for CCGUGUGCAUUUACGGGCATT against Cndp2, inactive: -0.489.
Then “CCAAGUUAGUGGAUGAAUGTT against C730031G17”, with inactive: 1.35.
Then “GGAGCAAGCACCUAUACUCTT against 1700029M20Rik”, with inactive: -1.28; and CCUCAAAAUCCUACAUCUUTT against LOC446210, with inactive: 0.863.
CCCUGUUUGGCAAUAACAATT against Nup98: the z-score was inactive: -2.6.
Then GGAGAACAAAGUAUUGGUGTT against Cacna1f, with inactive: -0.403.
In the case of “GCCUGUUACAGGAAUCAGGTT against 2700083E18Rik”, the z-score is inactive: 0.782.
Then GGACGUAAUCAACAUAGCUTT against BC059177, with inactive: 3.28.
Then GGAAGGUUUCAUCUUCAAATT against Hsf2, with inactive: 0.144; and GCUGAUCGCUUUGAUUCGATT against Fkbp11, with inactive: 0.0597.
With GGAGGUCGAGCUAUGUUUATT against Psmd11, the z-score was inactive: -3.3.
For GCUACUCGCGUUUAAUUUUTT against Slc9a9 the value was inactive: 0.428; for CGCCAAUGUGAUUAAACUATT against Mak, inactive: -0.478; for GGUCUUCUGAAGAUGGCGUTT against Pja2, inactive: 0.302.
For GGGAAGCUUCUGUGAGUUUTT against Stag3 the value was inactive: 0.863.
As for GCCUCUGAACGGUUUGUAATT against Gm185, the z-score was inactive: -0.359.
For GGCAUCUAGGAGAACCUCATT against Insig2 the value was inactive: -2.02.
For GGGCAAAGGGAGUGACAAATT against Skp2 the value was inactive: -2.16.
For CGGCUAUUCAGAGGACGAATT against Gnai3, the z-score is inactive: 0.182.
In the case of “GACUAUCCUACUUACUAUATT against 1110038M16Rik”, the z-score was inactive: 1.03.
Consider “GGGCCUUGAGCUCUAUUUATT against 1810063P04Rik”, for which the z-score was inactive: -1.24.
For “GGAAGCAAGCAACAUCUUGTT against B230396O12Rik” the value was inactive: -0.035; for GGAGCAAGUCUUGAAAAUUTT against Mtmr1, inactive: 0.167.
As to GCUCAAACACUUACACACUTT against Alcam, the z-score was inactive: -0.161.
For CCUUCCAUGACCUAGUUAGTT against Mras, the z-score is inactive: 1.89.
For “GGACCUAAUCCAUAAGGUCTT against C630049M13” the value was inactive: 0.0689; for GGUAGAAAUGGUGAGGUGATT against Pcdhgc5, inactive: -2.16.
As for CCAUGUUCCAGUUAAUGACTT against Ptch1, the z-score was inactive: 0.722.
With GGAUAUUUUUUGGUGCUGATT against Gbif, the z-score is inactive: 1.46.
Then CCUUGCAGCAUCAGGACUUTT against Ascl2, with inactive: 1.21; and CCAAUAAGAGUGCUGAUGGTT against Mkl1, with inactive: 1.11; and GGUCUUCGAAAGAACCAAGTT against Siva, with inactive: -1.79.
For CCUGUGACUUUAAUUGCUUTT against Zfp275 the value was inactive: 0.362.
